Earlier results, collected in patent US8039430B2 (University of Wollongong, priority 2005, dated 2011).

Tested on: E. faecium isolate (VanD-type)
Settings: VanD-type E. faecium isolate from the United States, constitutively resistant; cited from earlier work

Compound: CN[C@H](CC(C)C)C(=O)N[C@H]1C(=O)N[C@@H](CC(N)=O)C(=O)N[C@H]2C(=O)N[C@H]3C(=O)N[C@H](C(=O)N[C@H](C(=O)O)c4cc(O)cc(O)c4-c4cc3ccc4O)[C@H](O)c3ccc(c(Cl)c3)Oc3cc2cc(c3O[C@@H]2O[C@H](CO)[C@@H](O)[C@H](O)[C@H]2O[C@H]2C[C@](C)(N)[C@H](O)[C@H](C)O2)Oc2ccc(cc2Cl)[C@H]1O [Vancomycin, vancomycin, reference compound]
- MIC: > 64 µg/mL
